In the supplement of paper PMC6411743 one finds NP40-soluble protein abundance data, which are given here for 17 targets.

By UniProt entry, the sequences of proteins in these tests, tags left out. Where a name states a change or a piece, a line headed by the entry shows the natural chain unless it says otherwise.
UniProt P55199: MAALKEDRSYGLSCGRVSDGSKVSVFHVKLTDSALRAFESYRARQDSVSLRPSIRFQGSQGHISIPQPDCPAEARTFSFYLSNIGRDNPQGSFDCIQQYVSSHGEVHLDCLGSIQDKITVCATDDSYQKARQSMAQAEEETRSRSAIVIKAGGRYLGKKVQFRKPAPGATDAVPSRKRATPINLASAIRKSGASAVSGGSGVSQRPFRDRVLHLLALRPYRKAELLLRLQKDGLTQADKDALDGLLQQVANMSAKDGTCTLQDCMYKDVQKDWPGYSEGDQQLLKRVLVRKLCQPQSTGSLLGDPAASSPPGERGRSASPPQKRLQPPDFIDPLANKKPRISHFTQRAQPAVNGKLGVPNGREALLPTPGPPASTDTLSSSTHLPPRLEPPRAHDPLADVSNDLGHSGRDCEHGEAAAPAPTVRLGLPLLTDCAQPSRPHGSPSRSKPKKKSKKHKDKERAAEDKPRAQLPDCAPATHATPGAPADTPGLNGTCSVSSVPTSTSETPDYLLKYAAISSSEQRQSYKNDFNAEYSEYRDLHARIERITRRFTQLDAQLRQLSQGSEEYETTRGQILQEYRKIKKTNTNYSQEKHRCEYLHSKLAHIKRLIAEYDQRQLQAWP
UniProt P50454: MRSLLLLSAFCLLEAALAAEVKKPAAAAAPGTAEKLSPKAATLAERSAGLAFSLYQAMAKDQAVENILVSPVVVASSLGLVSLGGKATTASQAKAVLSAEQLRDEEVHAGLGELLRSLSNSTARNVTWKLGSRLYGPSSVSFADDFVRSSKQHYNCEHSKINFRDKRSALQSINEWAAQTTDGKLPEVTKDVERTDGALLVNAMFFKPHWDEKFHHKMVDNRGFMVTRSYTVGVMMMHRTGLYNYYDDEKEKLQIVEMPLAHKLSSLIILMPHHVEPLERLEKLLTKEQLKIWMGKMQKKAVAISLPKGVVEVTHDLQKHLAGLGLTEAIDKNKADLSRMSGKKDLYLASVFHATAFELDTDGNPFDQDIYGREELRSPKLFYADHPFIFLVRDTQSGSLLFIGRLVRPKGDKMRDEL
UniProt P52564: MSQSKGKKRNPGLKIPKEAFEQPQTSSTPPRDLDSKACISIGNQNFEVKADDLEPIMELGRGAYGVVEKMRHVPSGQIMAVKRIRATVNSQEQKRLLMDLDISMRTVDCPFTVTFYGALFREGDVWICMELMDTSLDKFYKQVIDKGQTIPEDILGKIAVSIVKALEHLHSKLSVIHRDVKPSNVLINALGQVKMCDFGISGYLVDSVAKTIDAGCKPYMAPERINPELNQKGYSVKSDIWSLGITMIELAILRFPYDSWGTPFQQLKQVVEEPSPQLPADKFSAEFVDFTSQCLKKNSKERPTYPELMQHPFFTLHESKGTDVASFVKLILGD
UniProt P52735: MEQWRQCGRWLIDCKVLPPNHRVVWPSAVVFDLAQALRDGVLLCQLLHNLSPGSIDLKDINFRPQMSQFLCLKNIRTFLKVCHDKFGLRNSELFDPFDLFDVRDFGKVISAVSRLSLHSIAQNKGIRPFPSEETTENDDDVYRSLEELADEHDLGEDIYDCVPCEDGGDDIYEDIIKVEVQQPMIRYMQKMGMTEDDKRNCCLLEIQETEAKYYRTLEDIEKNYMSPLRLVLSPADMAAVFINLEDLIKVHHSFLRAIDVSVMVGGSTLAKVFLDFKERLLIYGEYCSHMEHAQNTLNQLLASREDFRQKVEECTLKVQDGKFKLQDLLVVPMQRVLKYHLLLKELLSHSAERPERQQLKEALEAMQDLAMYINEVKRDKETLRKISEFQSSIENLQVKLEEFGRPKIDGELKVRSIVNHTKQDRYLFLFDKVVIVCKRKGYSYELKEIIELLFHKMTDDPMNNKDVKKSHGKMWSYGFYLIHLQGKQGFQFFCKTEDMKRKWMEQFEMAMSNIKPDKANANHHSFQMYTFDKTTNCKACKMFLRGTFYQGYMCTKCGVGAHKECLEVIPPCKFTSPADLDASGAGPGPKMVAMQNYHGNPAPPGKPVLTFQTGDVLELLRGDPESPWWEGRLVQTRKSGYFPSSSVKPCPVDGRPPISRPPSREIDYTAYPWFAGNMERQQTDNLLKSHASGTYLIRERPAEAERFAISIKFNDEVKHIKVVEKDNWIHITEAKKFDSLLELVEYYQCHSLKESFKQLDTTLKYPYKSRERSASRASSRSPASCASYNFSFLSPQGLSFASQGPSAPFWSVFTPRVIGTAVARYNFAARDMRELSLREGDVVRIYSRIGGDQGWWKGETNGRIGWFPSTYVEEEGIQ
UniProt P57076: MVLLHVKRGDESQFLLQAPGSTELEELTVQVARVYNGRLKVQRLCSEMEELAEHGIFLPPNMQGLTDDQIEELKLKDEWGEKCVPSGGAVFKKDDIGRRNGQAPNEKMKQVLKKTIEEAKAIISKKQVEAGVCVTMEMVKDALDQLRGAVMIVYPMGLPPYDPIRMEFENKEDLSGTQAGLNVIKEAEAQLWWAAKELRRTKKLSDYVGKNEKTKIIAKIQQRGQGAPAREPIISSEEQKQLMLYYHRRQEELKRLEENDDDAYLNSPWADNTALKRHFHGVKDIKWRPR
UniProt P61758, whole entry: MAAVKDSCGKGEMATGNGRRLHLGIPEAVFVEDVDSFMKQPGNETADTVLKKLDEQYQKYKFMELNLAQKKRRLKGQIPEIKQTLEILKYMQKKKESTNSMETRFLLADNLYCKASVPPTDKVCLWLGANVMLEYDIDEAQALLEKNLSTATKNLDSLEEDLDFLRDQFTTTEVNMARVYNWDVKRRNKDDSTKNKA
UniProt P78356: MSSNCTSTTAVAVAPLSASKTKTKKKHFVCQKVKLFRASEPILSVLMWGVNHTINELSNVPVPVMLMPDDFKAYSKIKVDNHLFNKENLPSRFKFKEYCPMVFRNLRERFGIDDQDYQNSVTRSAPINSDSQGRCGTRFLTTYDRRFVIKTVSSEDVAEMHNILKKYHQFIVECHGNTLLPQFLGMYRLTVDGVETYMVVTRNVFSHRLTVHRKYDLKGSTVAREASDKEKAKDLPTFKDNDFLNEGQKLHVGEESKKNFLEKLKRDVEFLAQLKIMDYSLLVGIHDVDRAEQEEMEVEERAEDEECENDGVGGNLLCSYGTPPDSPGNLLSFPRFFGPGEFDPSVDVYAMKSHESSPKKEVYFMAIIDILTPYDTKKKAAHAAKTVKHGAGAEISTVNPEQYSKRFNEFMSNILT
UniProt P61604, whole entry: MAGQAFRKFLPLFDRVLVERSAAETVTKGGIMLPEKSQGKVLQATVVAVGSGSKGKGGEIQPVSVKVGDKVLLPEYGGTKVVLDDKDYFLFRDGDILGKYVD
UniProt P54578: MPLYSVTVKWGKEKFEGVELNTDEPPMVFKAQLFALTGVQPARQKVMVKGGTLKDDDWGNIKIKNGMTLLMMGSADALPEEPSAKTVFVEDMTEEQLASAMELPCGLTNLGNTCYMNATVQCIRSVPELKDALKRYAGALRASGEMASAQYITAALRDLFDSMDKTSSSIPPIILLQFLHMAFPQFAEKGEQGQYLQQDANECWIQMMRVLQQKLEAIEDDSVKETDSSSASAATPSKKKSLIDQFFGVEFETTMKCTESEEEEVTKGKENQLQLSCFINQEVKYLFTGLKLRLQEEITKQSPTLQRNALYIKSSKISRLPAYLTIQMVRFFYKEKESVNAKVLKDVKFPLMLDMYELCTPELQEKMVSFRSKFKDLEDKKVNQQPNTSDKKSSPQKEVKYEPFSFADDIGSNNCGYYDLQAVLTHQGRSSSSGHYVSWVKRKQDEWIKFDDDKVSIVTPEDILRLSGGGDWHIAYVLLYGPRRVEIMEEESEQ
UniProt P51946: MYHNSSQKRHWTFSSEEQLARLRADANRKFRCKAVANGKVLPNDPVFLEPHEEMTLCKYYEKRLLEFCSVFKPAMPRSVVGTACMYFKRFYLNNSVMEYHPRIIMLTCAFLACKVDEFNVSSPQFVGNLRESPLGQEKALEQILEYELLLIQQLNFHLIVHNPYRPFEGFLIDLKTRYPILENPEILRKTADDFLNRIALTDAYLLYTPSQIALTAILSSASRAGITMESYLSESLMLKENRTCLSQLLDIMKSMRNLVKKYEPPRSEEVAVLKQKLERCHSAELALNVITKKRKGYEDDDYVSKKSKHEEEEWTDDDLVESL
UniProt P62834: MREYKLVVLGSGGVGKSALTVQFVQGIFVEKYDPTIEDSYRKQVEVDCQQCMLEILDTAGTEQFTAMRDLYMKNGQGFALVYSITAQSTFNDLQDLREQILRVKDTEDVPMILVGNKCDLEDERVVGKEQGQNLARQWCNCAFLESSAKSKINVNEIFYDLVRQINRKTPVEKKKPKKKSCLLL

± gives the standard deviation of the averaged measurements. This is one part of the list.

Compound in this test: Nc1nc2c(ncn2[C@@H]2O[C@H](COP(=O)(O)OP(=O)(O)OP(=O)(O)O)[C@@H](O)[C@H]2O)c(=O)[nH]1 [guanosine triphosphate]
Briefly: NP40-soluble protein abundance relative to vehicle (solubility fold change) (ratio); higher = more soluble protein in presence of GTP. In a few lines: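 In three independent experiments, Jurkat crude lysate made by Dounce homogenisation was treated for 10 min at room temperature and then 3 min at 37 °C with eight concentrations ranging from 0.1 to 10 mM. It was then solubilised with 0.8% NP40 plus benzonase for 60 min at 4 °C and ultracentrifuged. The supernatant was TMT-labelled for LC-MS/MS, and each value is the fold change against the detergent-processed vehicle for the same replicate, using vsn-normalised intensities.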

With UniProt P55199 and related entries, the NP40-soluble protein abundance was determined as 1.04 ± 0.054 (concentration: 0.1mM); 1.02 ± 0.05 (concentration: 0.5mM); 1.02 ± 0.013 (concentration: 1mM); 1.01 ± 0.05 (concentration: 2mM); 1.02 ± 0.033 (concentration: 4mM); 1.01 ± 0.05 (concentration: 6mM). For the same target, the NP40-soluble protein abundance turned out to be 1.029 ± 0.0093 (concentration: 8mM) and 1.03 ± 0.034 (concentration: 10mM).
With SERPINH1 (UniProt P50454), the NP40-soluble protein abundance by setting is: (concentration: 0.1mM) 0.964 ± 0.048; (concentration: 0.5mM) 0.966 ± 0.044; (concentration: 1mM) 0.889 ± 0.05; (concentration: 2mM) 0.875 ± 0.061; (concentration: 4mM) 0.847 ± 0.059; (concentration: 6mM) 0.85 ± 0.036. Further, the NP40-soluble protein abundance is, setting by setting: (concentration: 8mM) 0.868 ± 0.074; (concentration: 10mM) 0.86 ± 0.081.
In the case of UniProt P62753, the NP40-soluble protein abundance (concentration: 0.1mM) turned out to be 0.956 ± 0.058; the NP40-soluble protein abundance (concentration: 0.5mM) stood at 1.01 ± 0.097; the NP40-soluble protein abundance (concentration: 1mM) is 1.05 ± 0.18; the NP40-soluble protein abundance (concentration: 2mM) turned out to be 0.982 ± 0.2; the NP40-soluble protein abundance (concentration: 4mM) came out at 0.888 ± 0.28; the NP40-soluble protein abundance (concentration: 6mM) was 0.835 ± 0.25. The NP40-soluble protein abundance stood at 0.746 ± 0.23 (concentration: 8mM) and 0.816 ± 0.28 (concentration: 10mM).
With UniProt P55327-2|P55327-4, the NP40-soluble protein abundance (concentration: 0.1mM) worked out at 0.898 ± 0.15; the NP40-soluble protein abundance (concentration: 0.5mM) stood at 0.867 ± 0.13; the NP40-soluble protein abundance (concentration: 1mM) turned out to be 1.01 ± 0.12; the NP40-soluble protein abundance (concentration: 2mM) was 1.03 ± 0.051; the NP40-soluble protein abundance (concentration: 4mM) turned out to be 1.04 ± 0.13; the NP40-soluble protein abundance (concentration: 6mM) is 1 ± 0.093. For the same target, the NP40-soluble protein abundance (concentration: 8mM) stood at 0.8 ± 0.15 and the NP40-soluble protein abundance (concentration: 10mM) came out at 1.05 ± 0.062.
As for METAP1 (UniProt P53582), the NP40-soluble protein abundance by setting is: (concentration: 0.1mM) 1.09 ± 0.069; (concentration: 0.5mM) 1.1 ± 0.05; (concentration: 1mM) 1.08 ± 0.099; (concentration: 2mM) 1.12 ± 0.12; (concentration: 4mM) 1.19 ± 0.14; (concentration: 6mM) 1.24 ± 0.12. Besides, the NP40-soluble protein abundance was 1.25 ± 0.072 (concentration: 8mM) and 1.23 ± 0.13 (concentration: 10mM).
On to UniProt P52564, for which the NP40-soluble protein abundance was determined as 1.02 ± 0.018 (concentration: 0.1mM); 1 ± 0.029 (concentration: 0.5mM); 0.935 ± 0.025 (concentration: 1mM); 0.938 ± 0.024 (concentration: 2mM); 0.95 ± 0.043 (concentration: 4mM); 0.926 ± 0.066 (concentration: 6mM). Moreover, the NP40-soluble protein abundance is, setting by setting: (concentration: 8mM) 0.908 ± 0.045; (concentration: 10mM) 0.882 ± 0.056.
Take UniProt P52735 and related entries: the NP40-soluble protein abundance runs as follows: (concentration: 0.1mM) 1.11 ± 0.081; (concentration: 0.5mM) 1.03 ± 0.084; (concentration: 1mM) 1 ± 0.085; (concentration: 2mM) 0.943 ± 0.084; (concentration: 4mM) 0.985 ± 0.12; (concentration: 6mM) 0.99 ± 0.084. Further, the NP40-soluble protein abundance (concentration: 8mM) was 0.954 ± 0.087 and the NP40-soluble protein abundance (concentration: 10mM) is 0.889 ± 0.09.
As to UniProt P57076, the NP40-soluble protein abundance runs as follows: (concentration: 0.1mM) 0.937 ± 0.047; (concentration: 0.5mM) 0.878 ± 0.076; (concentration: 1mM) 0.982 ± 0.064; (concentration: 2mM) 0.944 ± 0.087; (concentration: 4mM) 0.94 ± 0.11; (concentration: 6mM) 0.924 ± 0.097. Also, the NP40-soluble protein abundance reads like this: (concentration: 8mM) 0.912 ± 0.084; (concentration: 10mM) 0.933 ± 0.059.
For the target UniProt P63220 and related entries, the NP40-soluble protein abundance worked out at 0.881 ± 0.12 (concentration: 0.1mM); 0.86 ± 0.14 (concentration: 0.5mM); 1.05 ± 0.19 (concentration: 1mM); 0.945 ± 0.17 (concentration: 2mM); 0.848 ± 0.23 (concentration: 4mM); 0.824 ± 0.22 (concentration: 6mM). Moreover, the NP40-soluble protein abundance by setting is: (concentration: 8mM) 0.688 ± 0.23; (concentration: 10mM) 0.832 ± 0.29.
Turning to VBP1 (UniProt P61758), the NP40-soluble protein abundance stood at 0.9064 ± 0.009 (concentration: 0.1mM); 0.9 ± 0.013 (concentration: 0.5mM); 0.978 ± 0.064 (concentration: 1mM); 0.935 ± 0.015 (concentration: 2mM); 0.912 ± 0.04 (concentration: 4mM); 0.949 ± 0.027 (concentration: 6mM). Moreover, the NP40-soluble protein abundance was 0.994 ± 0.044 (concentration: 8mM) and 1.04 ± 0.087 (concentration: 10mM).
On to UniProt P78356, for which the NP40-soluble protein abundance is 0.986 ± 0.062 (concentration: 0.1mM); 0.981 ± 0.045 (concentration: 0.5mM); 0.961 ± 0.02 (concentration: 1mM); 0.984 ± 0.065 (concentration: 2mM); 0.989 ± 0.092 (concentration: 4mM); 1 ± 0.079 (concentration: 6mM). Moreover, the NP40-soluble protein abundance is 1.04 ± 0.05 (concentration: 8mM) and 1.03 ± 0.081 (concentration: 10mM).
Turning to UniProt P61604 and related entries, the NP40-soluble protein abundance (concentration: 0.1mM) was 0.873 ± 0.034; the NP40-soluble protein abundance (concentration: 0.5mM) turned out to be 0.864 ± 0.074; the NP40-soluble protein abundance (concentration: 1mM) is 0.921 ± 0.044; the NP40-soluble protein abundance (concentration: 2mM) was determined as 0.873 ± 0.095; the NP40-soluble protein abundance (concentration: 4mM) worked out at 0.869 ± 0.081; the NP40-soluble protein abundance (concentration: 6mM) stood at 0.88 ± 0.088. Besides, the NP40-soluble protein abundance is 0.88 ± 0.068 (concentration: 8mM) and 0.909 ± 0.058 (concentration: 10mM).
On to UniProt P62913 and related entries, for which the NP40-soluble protein abundance runs as follows: (concentration: 0.1mM) 1.03 ± 0.037; (concentration: 0.5mM) 1.04 ± 0.057; (concentration: 1mM) 1.1 ± 0.11; (concentration: 2mM) 1.03 ± 0.13; (concentration: 4mM) 1.01 ± 0.16; (concentration: 6mM) 0.978 ± 0.14. Besides, the NP40-soluble protein abundance was found to be 0.996 ± 0.15 (concentration: 8mM) and 1.02 ± 0.15 (concentration: 10mM).
For the target UniProt P61978-2|P61978-3|Q5T6W2, the NP40-soluble protein abundance was 0.94 ± 0.032 (concentration: 0.1mM); 0.94 ± 0.039 (concentration: 0.5mM); 0.944 ± 0.041 (concentration: 1mM); 0.899 ± 0.056 (concentration: 2mM); 0.891 ± 0.056 (concentration: 4mM); 0.919 ± 0.061 (concentration: 6mM). The NP40-soluble protein abundance (concentration: 8mM) worked out at 0.919 ± 0.049 and the NP40-soluble protein abundance (concentration: 10mM) turned out to be 0.897 ± 0.049.
Regarding UniProt P54578 and related entries, the NP40-soluble protein abundance runs as follows: (concentration: 0.1mM) 0.975 ± 0.029; (concentration: 0.5mM) 0.998 ± 0.021; (concentration: 1mM) 0.935 ± 0.027; (concentration: 2mM) 0.922 ± 0.013; (concentration: 4mM) 0.903 ± 0.026; (concentration: 6mM) 0.897 ± 0.02. Moreover, the NP40-soluble protein abundance is 0.895 ± 0.038 (concentration: 8mM) and 0.876 ± 0.046 (concentration: 10mM).
Take CCNH (UniProt P51946): the NP40-soluble protein abundance runs as follows: (concentration: 0.1mM) 0.995 ± 0.068; (concentration: 0.5mM) 1.03 ± 0.026; (concentration: 1mM) 0.99 ± 0.034; (concentration: 2mM) 0.964 ± 0.035; (concentration: 4mM) 0.943 ± 0.035; (concentration: 6mM) 0.982 ± 0.033. Moreover, the NP40-soluble protein abundance is, setting by setting: (concentration: 8mM) 0.987 ± 0.099; (concentration: 10mM) 0.967 ± 0.028.
On to UniProt P62834, for which the NP40-soluble protein abundance is 0.978 ± 0.15 (concentration: 0.1mM); 0.99 ± 0.14 (concentration: 0.5mM); 0.914 ± 0.14 (concentration: 1mM); 0.907 ± 0.096 (concentration: 2mM); 0.904 ± 0.14 (concentration: 4mM); 0.879 ± 0.14 (concentration: 6mM). In addition, the NP40-soluble protein abundance by setting is: (concentration: 8mM) 0.881 ± 0.07; (concentration: 10mM) 0.913 ± 0.069.
